PMC4377584
Numbering of substitutions follows the chain as printed. No constants are given. Whether binding was seen depends on the method and setting. Binding seen in cells or lysates may run through a third protein. Some entries that bind do so weakly or less than the wild type. For part of these data: Sequences can lack the tags named with a protein.

Protein sequences, listed by entry. Tags and fused reporters are not part of them.
UniProt Q5VZM2: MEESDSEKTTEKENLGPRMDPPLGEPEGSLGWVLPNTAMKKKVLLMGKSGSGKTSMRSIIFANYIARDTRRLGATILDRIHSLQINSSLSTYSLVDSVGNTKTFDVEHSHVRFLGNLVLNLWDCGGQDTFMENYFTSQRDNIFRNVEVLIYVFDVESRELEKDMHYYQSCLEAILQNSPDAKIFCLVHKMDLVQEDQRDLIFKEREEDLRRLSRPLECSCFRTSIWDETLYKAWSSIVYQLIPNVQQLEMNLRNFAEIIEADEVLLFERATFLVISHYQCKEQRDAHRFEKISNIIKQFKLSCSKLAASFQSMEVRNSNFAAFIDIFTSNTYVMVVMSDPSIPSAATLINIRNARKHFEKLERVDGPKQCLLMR

Experiments:
[1] = target: T1, Flag-tagged Sestrin2 (UniProt P58004); test: co-IP; HEK293 cells co-expressing Sestrin2 and one single candidate protein at a time (Fig. S1A); lysis buffer with 0.3% CHAPS
T1 sequence: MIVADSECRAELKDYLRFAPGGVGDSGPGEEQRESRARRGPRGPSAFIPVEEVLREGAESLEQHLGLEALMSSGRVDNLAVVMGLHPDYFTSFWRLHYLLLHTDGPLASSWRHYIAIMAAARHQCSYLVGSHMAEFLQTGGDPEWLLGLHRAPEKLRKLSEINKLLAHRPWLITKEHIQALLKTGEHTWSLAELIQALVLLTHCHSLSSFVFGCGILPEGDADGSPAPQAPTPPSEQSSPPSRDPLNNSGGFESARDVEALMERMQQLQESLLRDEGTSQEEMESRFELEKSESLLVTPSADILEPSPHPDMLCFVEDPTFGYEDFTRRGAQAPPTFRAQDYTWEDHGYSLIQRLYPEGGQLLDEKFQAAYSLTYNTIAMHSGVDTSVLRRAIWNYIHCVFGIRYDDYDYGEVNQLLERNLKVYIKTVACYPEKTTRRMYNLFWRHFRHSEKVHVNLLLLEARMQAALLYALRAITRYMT

[2] = target: T1, Flag-tagged Sestrin2; test: co-IP; HEK293 cells co-transfected with Sestrin2 (or Sestrin1, or truncated Sestrin2) and all GATOR2 components, in Fig. S3D also the GATOR1 components; Sestrin2 IPed (Flag antibody in Fig. 1C); lysis buffer with 0.3% CHAPS; immunoblot
[3] = target: T2, WDR24 (endogenous, mouse liver) (mouse (endogenous in liver)) (UniProt Q8CFJ9); test: co-IP; endogenous GATOR proteins; mouse liver lysates IPed with WDR24 antibody; mice injected with adenoviruses expressing GFP or Sestrin2 (4 days) or WT or Sesn2-/- mice injected with tunicamycin (24 hrs); immunoblot
T2 sequence: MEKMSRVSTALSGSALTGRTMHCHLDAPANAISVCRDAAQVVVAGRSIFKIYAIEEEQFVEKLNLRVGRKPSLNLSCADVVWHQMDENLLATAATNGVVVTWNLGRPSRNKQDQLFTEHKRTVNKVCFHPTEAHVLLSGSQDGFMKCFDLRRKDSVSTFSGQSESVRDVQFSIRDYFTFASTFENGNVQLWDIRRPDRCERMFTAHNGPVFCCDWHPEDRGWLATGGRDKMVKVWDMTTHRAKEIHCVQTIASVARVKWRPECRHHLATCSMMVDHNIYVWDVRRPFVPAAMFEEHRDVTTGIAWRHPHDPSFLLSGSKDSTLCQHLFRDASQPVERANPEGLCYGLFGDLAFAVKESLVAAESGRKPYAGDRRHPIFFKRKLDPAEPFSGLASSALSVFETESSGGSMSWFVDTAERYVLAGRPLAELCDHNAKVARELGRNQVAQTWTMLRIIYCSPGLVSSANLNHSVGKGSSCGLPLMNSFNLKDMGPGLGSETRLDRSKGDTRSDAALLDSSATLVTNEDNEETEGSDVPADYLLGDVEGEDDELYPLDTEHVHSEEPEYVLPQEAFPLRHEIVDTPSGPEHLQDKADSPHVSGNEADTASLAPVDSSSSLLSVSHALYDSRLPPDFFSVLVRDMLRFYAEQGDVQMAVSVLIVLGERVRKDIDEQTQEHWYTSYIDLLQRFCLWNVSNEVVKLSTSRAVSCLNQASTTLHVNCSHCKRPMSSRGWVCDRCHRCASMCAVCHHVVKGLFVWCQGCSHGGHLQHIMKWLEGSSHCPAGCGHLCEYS

[4] = target: RagB (endogenous, HEK293) (human (endogenous in HEK293)) (UniProt Q5VZM2); test: co-IP; endogenous proteins; HEK293 cells transduced with GFP or Sestrin2-overexpressing lentiviruses for 48 h; IP with RagB antibody (Fig. 3C) or NPRL2 antibody (Fig. 3D); immunoblot
[5] = target: T3, Flag-tagged Sestrin2, P58004; test: co-IP; HEK293 cells co-transfected with Sestrin2 (or Sestrin1, or truncated Sestrin2) and all GATOR2 components, in Fig. S3D also the GATOR1 components; Sestrin2 IPed (Flag antibody in Fig. 1C); lysis buffer with 0.3% CHAPS; immunoblot; settings: remark: other sources report otherwise
T3 chain: T1 sequence

B1: PPM1A (co-expressed) (protein, UniProt P35813 1-382)
chain: MGAFLDKPKMEKHNAQGQGNGLRYGLSSMQGWRVEMEDAHTAVIGLPSGLESWSFFAVYDGHAGSQVAKYCCEHLLDHITNNQDFKGSAGAPSVENVKNGIRTGFLEIDEHMRVMSEKKHGADRSGSTAVGVLISPQHTYFINCGDSRGLLCRNRKVHFFTQDHKPSNPLEKERIQNAGGSVMIQRVNGSLAVSRALGDFDYKCVHGKGPTEQLVSPEPEVHDIERSEEDDQFIILACDGIWDVMGNEELCDFVRSRLEVTDDLEKVCNEVVDTCLYKGSRDNMSVILICFPNAPKVSPEAVKKEAELDKYLECRVEEIIKKQGEGVPDLVHVMRTLASENIPSLPPGGELASKRNVIEAVYNRLNPYKNDDTDSTSTDDMW
Q: Which binding [1] does the source give for B1 here?
A: binds weakly

B2: WDR59 (transfected) (protein, UniProt Q6PJI9 1-974)
chain: MAARWSSENVVVEFRDSQATAMSVDCLGQHAVLSGRRFLYIVNLDAPFEGHRKISRQSKWDIGAVQWNPHDSFAHYFAASSNQRVDLYKWKDGSGEVGTTLQGHTRVISDLDWAVFEPDLLVTSSVDTYIYIWDIKDTRKPTVALSAVAGASQVKWNKKNANCLATSHDGDVRIWDKRKPSTAVEYLAAHLSKIHGLDWHPDSEHILATSSQDNSVKFWDYRQPRKYLNILPCQVPVWKARYTPFSNGLVTVMVPQLRRENSLLLWNVFDLNTPVHTFVGHDDVVLEFQWRKQKEGSKDYQLVTWSRDQTLRMWRVDSQMQRLCANDILDGVDEFIESISLLPEPEKTLHTEDTDHQHTASHGEEEALKEDPPRNLLEERKSDQLGLPQTLQQEFSLINVQIRNVNVEMDAADRSCTVSVHCSNHRVKMLVKFPAQYPNNAAPSFQFINPTTITSTMKAKLLKILKDTALQKVKRGQSCLEPCLRQLVSCLESFVNQEDSASSNPFALPNSVTPPLPTFARVTTAYGSYQDANIPFPRTSGARFCGAGYLVYFTRPMTMHRAVSPTEPTPRSLSALSAYHTGLIAPMKIRTEAPGNLRLYSGSPTRSEKEQVSISSFYYKERKSRRWKSKREGSDSGNRQIKAAGKVIIQDIACLLPVHKSLGELYILNVNDIQETCQKNAASALLVGRKDLVQVWSLATVATDLCLGPKSDPDLETPWARHPFGRQLLESLLAHYCRLRDVQTLAMLCSVFEAQSRPQGLPNPFGPFPNRSSNLVVSHSRYPSFTSSGSCSSMSDPGLNTGGWNIAGREAEHLSSPWGESSPEELRFGSLTYSDPRERERDQHDKNKRLLDPANTQQFDDFKKCYGEILYRWGLREKRAEVLKFVSCPPDPHKGIEFGVYCSHCRSEVRGTQCAICKGFTFQCAICHVAVRGSSNFCLTCGHGGHTSHMMEWFRTQEVCPTGCGCHCLLESTF
Q: For B2, which binding [2] is on record?
A: binds

Q: What about the binding [1] of the same binder?
A: binds weakly

B3: NPRL2 (endogenous, mouse liver) (protein, UniProt Q9WUE4 1-380)
chain: MGSSCRIECIFFSEFHPTLGPKITYQVPEDFISRELFDTVQVYIITKPELQNKLITVTAMEKKLIGCPVCIEHKKYSRNALLFNLGFVCDAQAKTCALEPIVKKLAGYLTTLELESSFVSNEESKQKLVPIMTILLEELNASGRCTLPIDESNTIHLKVIEQRPDPPVAQEYDVPVFTKDKEDFFSSQWDLTTQQILPYIDGFRHVQKISAEADVELNLVRIAIQNLLYYGVVTLVSILQYSNVYCPTPKVQDLVDDKSLQEACLSYVTKQGHKRASLRDVFQLYCSLSPGTTVRDLIGRHPQQLQHVDERKLIQFGLMKNLIRRLQKYPVRVSREERSHPARLYTGCHSYDEICCKTGMSYHELDERLENDPNIIICWK
Q: For B3, which binding [3] is on record?
A: binds

B4: human Sestrin2 expressed from adenovirus (protein, UniProt P58004 1-480)
chain: T1 sequence
Q: B4 was tested. Which binding [3] did it give?
A: binds

B5: endogenous Sestrin2 (mouse) (protein, UniProt P58043 1-480)
chain: MIVADSECHSEIKGYLPFTRGGVAGPETREEHREGQARRGSRGPSAFIPVEEILREGAESLEQHLGLEALMSSGRVDNLAVVMGLHPDYLSSFWRLHYLLLHTDGPLASSWRHYIAIMAAARHQCSYLVGSHMTEFLQTGGDPEWLLGLHRAPEKLRKLSEVNKLLAHRPWLITKEHIQALLKTGEHSWSLAELIQALVLLTHCHSLASFVFGCGILPEGDAEGSPASQAPSPPSEQGTPPSGDPLNNSGGFEAARDVEALMERMRQLQESLLRDEGASQEEMENRFELEKSESLLVTPSADILEPSPHPDILCFVEDPAFGYEDFTRRGTQAPPTFRAQDYTWEDHGYSLIQRLYPEGGQLLDEKFQVACSLTYNTIAMHSGVDTSMLRRAIWNYIHCVFGIRYDDYDYGEVNQLLERNLKIYIKTVACYPEKTTRRMYNLFWRHFRHSEKVHVNLLLLEARMQAALLYALRAITRYMT
Q: B5 was tested. Which binding [3] did it give?
A: binds

B6: NPRL2 (endogenous, HEK293) (protein, UniProt Q8WTW4 1-380)
chain: B3 chain with S4G, N121M, S186N, V206I, S334T, R338Q
Q: For B6, which binding [4] is on record?
A: binds

B7: NPRL2 (transfected), Q8WTW4 1-380 (protein)
chain: B3 chain with S4G, N121M, S186N, V206I, S334T, R338Q
Q: With B7 as the binder, how does the binding [5] read?
A: no binding

B8: NPRL3 (transfected), Q12980 1-569 (protein)
chain: MRDNTSPISVILVSSGSRGNKLLFRYPFQRSQEHPASQTSKPRSRYAASNTGDHADEQDGDSRFSDVILATILATKSEMCGQKFELKIDNVRFVGHPTLLQHALGQISKTDPSPKREAPTMILFNVVFALRANADPSVINCLHNLSRRIATVLQHEERRCQYLTREAKLILALQDEVSAMADGNEGPQSPFHHILPKCKLARDLKEAYDSLCTSGVVRLHINSWLEVSFCLPHKIHYAASSLIPPEAIERSLKAIRPYHALLLLSDEKSLLGELPIDCSPALVRVIKTTSAVKNLQQLAQDADLALLQVFQLAAHLVYWGKAIIIYPLCENNVYMLSPNASVCLYSPLAEQFSHQFPSHDLPSVLAKFSLPVSLSEFRNPLAPAVQETQLIQMVVWMLQRRLLIQLHTYVCLMASPSEEEPRPREDDVPFTARVGGRSLSTPNALSFGSPTSSDDMTLTSPSMDNSSAELLPSGDSPLNQRMTENLLASLSEHERAAILSVPAAQNPEDLRMFARLLHYFRGRHHLEEIMYNENTRRSQLLMLFDKFRSVLVVTTHEDPVIAVFQALLP
Q: With B8 as the binder, how does the binding [5] read?
A: no binding
